Our source for the normalized bacterial growth values is the supplement of paper PMC10398353.

SMILES strings stand for the structures. Where “and” joins values, the source holds several entries; their conditions need not be identical. Equal entries are not always repeated. Structures can show the parent of a compound that is named as a salt. ± gives the standard deviation of the averaged measurements. This is one part of the list. Single values of this set are uncertain.

The test system of this assay is Salmonella enterica serovar Typhimurium ST313 D23580. Nature of the assay: normalized bacterial growth (OD600 20 h minus 0 h, interquartile-mean normalized) (fraction of plate interquartile mean); higher = more bacterial growth (less inhibition). As to conditions: LPM (pH 5.8, low phosphate, low Mg2+), concentration: 10 µM, temperature: 37 °C.
`C#C[C@]1(OC(C)=O)CC[C@H]2[C@@H]3CCC4=CC(=O)CC[C@@H]4[C@H]3CC[C@@]21C` showed a normalized bacterial growth of 0.774.
The figure for `CCCc1nc2c(C)cc(-c3nc4ccccc4n3C)cc2n1Cc1ccc(-c2ccccc2C(=O)O)cc1` is 0.637.
`O=C(O)Cc1ccc(O)c(O)c1` ["3,4-Dihydroxyphenylacetic acid"] gave a normalized bacterial growth of 0.901.
To `CC(=O)/N=c1/sc(S(N)(=O)=O)nn1C` [Methazolamide] belongs 1.27.
With `CC(=O)/N=c1/sc(S(N)(=O)=O)nn1C`, the normalized bacterial growth is 1.04.
In turn, `CC1=CC(=O)c2ccccc2C1=O` displayed a normalized bacterial growth of 0.768.
In turn, `COc1ccc(-c2cc(=O)c3c(O)c(OC)c(OC)c(OC)c3o2)cc1OC` registered a normalized bacterial growth of 0.879.
To `N=C(N)N1CCc2ccccc2C1` [Debrisoquin sulfate] belongs 1.07 ± 0.076.
The compound `N=C(N)SCCN` [2-(2-Aminoethyl)isothiourea dihydrobromide] came in with a normalized bacterial growth of 1.07.
To `CCCCC1C(=O)N(c2ccccc2)N(c2ccccc2)C1=O` [Phenylbutazone] belongs 1.02; to `O=C(O)/C=C/C=C/c1ccccc1`, 1.06.
As for `CCCCC[C@@H](O)[C@H]1C(=O)O[C@H](C)[C@@H](O)/C=C/C=C/C=C/C=C/C=C(\C)[C@@H](O)C[C@H](O)C[C@H](O)C[C@H](O)C[C@H](O)C[C@H](O)C[C@@H]1O`, the normalized bacterial growth turned out to be 1.08.
The figure for `O=C(Nc1ccccc1)OCC(CN1CCCCC1)OC(=O)Nc1ccccc1` (stereo not given) is 1.06; for `CC1(C)C(=O)N(CCN2CCC(C(=O)c3ccc(F)cc3)CC2)c2ccccc21` ["LY-310,762 hydrochloride"] it is 0.884.
`COc1c(O)cc(O)cc1O`: the normalized bacterial growth is 0.972.
In turn, `NC(=O)Nc1sc(-c2ccc(F)cc2)cc1C(N)=O` registered a normalized bacterial growth of 1.08.
The figure for `C[C@@H]1O[C@@H](OC[C@H]2O[C@@H](Oc3c(-c4ccc(O)c(O)c4)oc4cc(O)cc(O)c4c3=O)[C@H](O)[C@@H](O)[C@@H]2O)[C@H](O)[C@H](O)[C@H]1O` [RUTOSIDE  (rutin)] is 1.13.
In turn, `C[C@@H]1O[C@@H](OC[C@H]2O[C@@H](Oc3c(-c4ccc(O)c(O)c4)oc4cc(O)cc(O)c4c3=O)[C@H](O)[C@@H](O)[C@@H]2O)[C@H](O)[C@H](O)[C@H]1O` registered a normalized bacterial growth of 1.03.
The compound `CCCC(=O)Nc1ccc(OCC(O)CNC(C)C)c(C(C)=O)c1` (stereo not given) had a normalized bacterial growth of 1.2.
The figure for `CC(=O)Nc1ccc(OCC(O)CNC(C)C)cc1` (stereo not given) is 1.25; for `CN1[C@@H]2CC[C@H]1C[C@@H](OC(c1ccccc1)c1ccccc1)C2` [Benztropine mesylate] it is 0.75.
To `N=C(N=C(N)N)N1CCOCC1` [Moroxidine hydrochloride] belongs 1.09; to `COc1cc(O)c(C(=O)/C=C/c2ccc(O)c(OC)c2)c(OC)c1`, 0.609; to `CC(=O)OCC(=O)[C@@]12OC3(CCCC3)O[C@@H]1C[C@H]1[C@@H]3CCC4=CC(=O)C=C[C@]4(C)[C@@]3(F)[C@@H](O)C[C@@]12C`, 1.01.
`COc1cc2c(cc1OC)Cc1cc(OC)c(OC)cc1Cc1cc(OC)c(OC)cc1C2`: the normalized bacterial growth turned out to be 0.748.
To `N[C@@H](CC(=O)N1CCn2c(nnc2C(F)(F)F)C1)Cc1cc(F)c(F)cc1F` belongs 1.01; to `C[C@@H]1O[C@@H](O[C@H]2[C@H](Oc3cc(O)c4c(c3)O[C@H](c3ccc(O)cc3)CC4=O)O[C@H](CO)[C@@H](O)[C@@H]2O)[C@H](O)[C@H](O)[C@H]1O`, 1.08 ± 0.42; to `C[C@@H]1O[C@@H](O[C@H]2[C@H](Oc3cc(O)c4c(c3)O[C@H](c3ccc(O)cc3)CC4=O)O[C@H](CO)[C@@H](O)[C@@H]2O)[C@H](O)[C@H](O)[C@H]1O` [Naringin hydrate], 1.32.
To `OCC(O)C(O)C(O)CO` (stereo not given) belongs 0.756.
The figure for `CC1CCC2(OC1)OC1CC3C4CCC5C[C@@H](O)CCC5(C)C4=CCC3(C)C1[C@@H]2C` (stereo partly drawn) [3beta-HYDROXYISOALLOSPIROST-9(11)-ENE] is 0.935; for `C#CC1(O)CC[C@H]2[C@@H]3CCC4=CC(=O)CC[C@@H]4[C@H]3CC[C@@]21CC` (stereo not given in full) it is 1.16; for `Cc1nc(N=Nc2cc(S(=O)(=O)O)c3cc([N+](=O)[O-])cc(S(=O)(=O)O)c3c2)c(COP(=O)(O)O)c(C=O)c1O` [PPNDS tetrasodium] it is 1.03.
`Cc1cccc(C)c1NC(=O)CN1CCN(CCCC(c2ccc(F)cc2)c2ccc(F)cc2)CC1` [Lidoflazine]: the normalized bacterial growth came out at 0.855.
The figure for `Cc1cccc(C2CN(C)CCc3c2cc(O)c(O)c3Cl)c1` (stereo not given) is 0.597; for `Cc1c(C)c2c(c(C)c1O)CCC(C)(CCCC(C)CCCC(C)CCCC(C)C)O2` (stereo not drawn) [alpha-TOCHOPHEROL] it is 1.3.
To `CC(=O)O[C@]1(C(C)=O)CC[C@H]2[C@@H]3C=C(C)C4=CC(=O)CC[C@]4(C)[C@H]3CC[C@@]21C` belongs 1.03.
To `CC(=O)O[C@]1(C(C)=O)CC[C@H]2[C@@H]3C=C(C)C4=CC(=O)CC[C@]4(C)[C@H]3CC[C@@]21C` [Megestrol acetate] belongs 0.998; to `NC[C@H]1O[C@H](O[C@H]2[C@H](O)[C@@H](O[C@H]3O[C@H](CO)[C@@H](O)[C@H](N)[C@H]3O)[C@H](N)C[C@@H]2N)[C@H](N)[C@@H](O)[C@@H]1O`, 0.341.
Regarding `Nc1nnc(-c2cccc(Cl)c2Cl)c(N)n1` [Lamotrigine], the normalized bacterial growth amounted to 0.944.
The figure for `O=C(O)/C=C(\CC(=O)O)C(=O)O` is 0.961; for `Nc1nc(=O)[nH]cc1F` [Flucytosine] it is 0.171; for `Oc1cc(O)cc(/C=C/c2ccc(O)c(O)c2)c1` it is 0.925.
To `COc1ccc2cc3[n+](cc2c1OC)CCc1cc2c(cc1-3)OCO2` belongs 0.831 and 1.03; to `CC[C@@H]1Cc2cc(O)ccc2C2=C1c1ccc(O)cc1C[C@H]2CC` ["(R,R)-cis-Diethyl tetrahydro-2,8-chrysenediol"], 0.994.
In the case of `COc1ccc2c(c1)OC[C@@H](Cc1ccc(OC)c(OC)c1)[C@@H]2O`, the normalized bacterial growth is 0.78.
In turn, `COC(=O)C[C@H]1C(C)(C)C(=O)[C@@H]2CC3C4=CC(=O)O[C@@H](c5ccoc5)[C@]4(C)CC[C@@H]3[C@@]1(C)C2=O` (stereo not given in full) returned a normalized bacterial growth of 0.942.
The figure for `CC(C)=CC1C(C(=O)O)C1(C)C` (stereo not given) is 1.1; for `NC(=O)c1cc[n+](CC2=C(C(=O)[O-])N3C(=O)[C@@H](NC(=O)Cc4cccs4)[C@H]3SC2)cc1` [Cefalonium] it is 1.09; for `O=C1C(O)=C(O)C(=O)C(O)=C1O` it is 0.485.
The figure for `O=C1C(O)=C(O)C(=O)C(O)=C1O` ["Tetrahydroxy-1,4-quinone monohydrate"] is 1.18.
